PubChem BioAssay AID602196 – INSERM – 2012
Shown is one part, drawn at random, of about 23,000 reagents. 455 of them (2%) were called active. 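Active includes both protection and sensitisation; some change values fall well beyond the stated -50 to +50 range.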 A number with no mark means an inactive call. Not stated in the record: the amount of reagent.

- Purpose: 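Genes whose knock-down alters cisplatin killing of lung cancer cells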
- System: human A549 lung cancer cells
- Reagents: siRNA pair against human genes
- Timing: 48 h transfection before cisplatin; time from cisplatin to read-out not stated
- Conditions: cisplatin at a dose killing half of control-siRNA cells; exact dose and duration not given
- Read-out: 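Cisplatin cell death as a shift from the 50% death seen with control siRNA; siRNAs toxic or growth-blocking alone scored 0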
- Scale: two-siRNA summed score (-2 to +2): higher = both siRNAs protect from cisplatin killing; -2 means both sensitise; mean protection from cisplatin (shift in death) and protection from cisplatin (shift in death), siRNA C and protection from cisplatin (shift in death), siRNA D: higher = protection from cisplatin killing
- Hit rule: 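siRNAs harmful alone (LDH or WST-1) get 0; others get +1 for less and -1 for more cisplatin killing; genes are active when the two siRNAs give the same sign, summing to ±2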
- Meaning of the calls: active = both siRNAs shift cisplatin killing the same way; inactive = no consistent shift, or siRNA harmful alone

no.	gene knocked down	two-siRNA summed score (-2 to +2)	mean protection from cisplatin (shift in death) (%)	protection from cisplatin (shift in death), siRNA C (%)	protection from cisplatin (shift in death), siRNA D (%)
1	LOC118945	0	16.5	18.8	14.2
2	HIPK1 (homeodomain interacting protein kinase 1)	0	-7.9	-3.5	-12.3
3	RPSA (ribosomal protein SA)	0	0	-9	9
4	TPRG1 (tumor protein p63 regulated 1)	0	4.4	-0.4	9.2
5	HEG1 (heart development protein with EGF like domains 1)	0	2.5	16.6	-11.5
6	WBP1 (WW domain binding protein 1)	0	5.2	-1.2	11.6
7	MAP1A (microtubule associated protein 1A)	0	-2.6	5.6	-10.8
8	UVSSA (UV stimulated scaffold protein A)	0	-8.3	-2.8	-13.7
9	GTF3C3 (general transcription factor IIIC subunit 3)	0	1.8	2.9	0.7
10	CANX (calnexin)	0	1.7	9.8	-6.5
11	LINC02687 (long independently transcribed non-coding RNA 2687)	1	14	19	8.9
12	LRP2BP (LRP2 binding protein)	-1	-10.5	8.3	-29.2
13	LOC401467	0	9.5	8.9	10.1
14	NUDT13 (nudix hydrolase 13)	0	2.4	4.4	0.3
15	RAB2B (RAB2B, member RAS oncogene family)	0	10	-2.7	22.6
16	TSNAX (translin associated factor X)	0	1	-2.1	4.2
17	LRR1 (leucine rich repeat protein 1)	0	4.3	-2.7	11.3
18	GARRE1 (granule associated Rac and RHOG effector 1)	0	6.5	7.5	5.5
19	IL16 (interleukin 16)	0	-12.6	-17.2	-7.9
20	DOCK8 (dedicator of cytokinesis 8)	0	-0.9	4.6	-6.4
21	TSLP (thymic stromal lymphopoietin)	0	-0.4	5.3	-6.1
22	CBX1 (chromobox 1)	1	6.8	15	-1.5
23	OR2W5	0	9.6	14.4	4.8

4 entries already listed, sorted by “protection from cisplatin (shift in death), siRNA C (%)”, high to low:
gene knocked down	two-siRNA summed score (-2 to +2)	mean protection from cisplatin (shift in death) (%)	protection from cisplatin (shift in death), siRNA C (%)	protection from cisplatin (shift in death), siRNA D (%)
CANX (calnexin)	0	1.7	9.8	-6.5
MAP1A (microtubule associated protein 1A)	0	-2.6	5.6	-10.8
GTF3C3 (general transcription factor IIIC subunit 3)	0	1.8	2.9	0.7
UVSSA (UV stimulated scaffold protein A)	0	-8.3	-2.8	-13.7
